18 molecules from PMC10163288 can be followed below.

Some of the results follow.

B1: il10ra_site1_sap_20_mot_HHH_b2_00475_000000002_0001_44_57_H_._HHH_b2_00229_0001_0000300039_0000002_0_0001 (protein)
chain: SSSSSSHEESQRVIELIRRAARIRDEEELKEVLEEARELAEELGSDVFRWQVEYLLRAQTSSSSS
B2: il10ra_site1_sap_26_mot_HHH_b1_01082_af2_000000031_0001_3_19_H_._ead7110553fcc56fee53bdb6698f5c61_0001_af2_0001_0000500012_0000001_0_0001 (protein)
chain: SSSSDEQQRVLELVLEAFRLLLRGNPEEAEKLLEEARELAEEAGDERILKMIEDLLRAINSSSSS
B3: il10ra_site1_normal_mot_HHH_b2_05454_000000273_0001_1_18_H_._HHH_b1_00039_af2_0001_0000900043_0000001_0 (protein)
chain: SSSSSSDIARLAAEAVRLALRLGDEEVFQRIWELFKRWAEEGDPRYEEELEELLEELRSSSSSSS
B4: il10ra_site1_sap_17_mot_HHH_b2_00137_af2_000000090_0001_1_17_H_._HHH_b1_04486_af2_0001_0000100004_0000001_1_0001_af2pred_0001 (protein)
chain: SSSSSDDQRVLRLLRRALKAIFRGNPEEVRELLEEAEEIARENNDEKLERAIEMVRHLLESSSSS
B5: il10ra_site1_sap_11_mot_HHH_b2_03438_af2_000000049_0001_18_34_H_._HHH_b1_03290_0001_0000200016_0000001_0_0001 (protein)
chain: SSSSDARREIYELLREAVELDHEGNPEEAEKVLEEAEELAREAGDRLFLHVVEYLQRVLNSSSSS
B6: il10ra_site1_normal_mot_HHH_b1_00814_af2_000000078_0001_43_57_H_._HHH_b2_06398_0001_0000300036_0000001_0_af2pred_dldesign_0_af2pred (protein)
chain: SSSSSSPAAVEVNRLLEEALKEEDPDKRFALIKKATQLAGDAEDGALLQKVAEVARKLLESSSSS
B7: il10ra_site1_normal_mot_HHH_b2_07440_af2_000000021_0001_1_18_H_._HHH_b1_07357_0001_0000500040_0000001_0 (protein)
chain: SSSSDEEEERILELSLEAFRLALRGNPEEAREVLEEALELAREAGNERAVEILEDLLQALSSSSS
B8: il10ra_site1_sap_24_mot_HHH_b2_03708_000000000_0001_1_18_H_._HHH_b1_01390_af2_0001_0000700015_0000001_0_0001_af2pred_0001 (protein)
chain: SSSSSDLERSFRFLEDALRLIRELGDEERLKLTFRFMEFDIRAANNEELLKELEELKKELSSSSS
B9: il10ra_site1_sap_19_mot_HHH_b1_08697_af2_000000298_0001_1_18_H_._HHH_b1_07925_0001_0000300029_0000001_0_0001_af2pred_0001 (protein)
chain: SSSSSRLERSVELLLRSAELAYEEGDPELAEISLEEALLVAEEANNPELHELVKRILEELGSSSS
B10: il10ra_site1_normal_mot_HHH_b2_00475_000000107_0001_44_57_H_._HHH_b1_06647_af2_0001_0000500026_0000001_0_af2pred_dldesign_0_af2pred (protein)
chain: SSSSKEQEVVQLIHDAVRLLDQGRPEEALAALEEAEKLAKELKDEELIAAVEKARRFVESQSSSS
B11: il10ra_site1_normal_mot_8756ee2cf497b5429c717dfc0c0bcfd6_0001_000000186_0001_1_13_H_._HHH_b1_03047_af2_0001_0000300019_0000001_1 (protein)
chain: SSSSSAQEVIELIRRAARLEHEGNPEEARKLLEEAEELAEKLGNDVLLAQIRYLERIIENSSSSS
B12: il10ra_site1_sap_21_mot_HHH_b1_08622_000000192_0001_23_40_H_._HHH_b1_05218_0001_0000500032_0000001_0_0001_af2pred_0001 (protein)
chain: SSSSSSEVEELIREAQEAAEEQGDEEARLLLEFLERAFKLGVASERTAEASARNLLKLLGSSSSS
B13: il10ra_site1_normal_mot_HHH_b2_00277_af2_000000172_0001_1_17_H_._HHH_b2_06211_0001_0000100010_0000002_0 (protein)
chain: SSSSSDVEERIEELLEEAKHIPDRAHRTYVLIEAYALAHQLGNPEILEEVREVAIRLAERSSSSS
B14: il10ra_site1_normal_mot_HHH_b2_02337_000000026_0001_38_52_H_._HHH_b2_01645_0001_0000100007_0000001_0 (protein)
chain: SSSSSDEEEEEVERLLERAEKVEDPREFAELALRALRIAWEINNEELLREIWRLVQEWGSSSSSS
B15: il10ra_site1_normal_mot_HHH_b1_05357_000000034_0001_23_39_H_._HHH_b2_00526_af2_0001_0000600012_0000001_1_af2pred_0001 (protein)
chain: SSSSSSEEEEELEELLKEAEKIEDPDERAYVLIRAYALAVRLNDPELEELVREVAIRLSSSSSSS
B16: il10ra_site1_sap_16_mot_HHH_b2_03438_af2_000000049_0001_18_34_H_._ems_p1-15H-GBL-16H-GABBL-16H_0175_0001_0001_0002_0001_0000100003_0000001_0_0001 (protein)
chain: SSSSDAHELYRLSREAAELLAEGNPEEAEKLLEEAQKIAEEANDRVLLVVIRFLLRQVERASSSS
B17: il10ra_site1_normal_mot_HHH_b2_06857_af2_000000179_0001_42_54_H_._HHH_b1_05676_af2_0001_0000100011_0000002_0 (protein)
chain: SSSSDELERVFELLRRAAELHSDGDKEEAEKLLEEAEELAEELGNELLRWQIEFLLRALDSSSSS
B18: il10ra_site1_normal_mot_HHH_b1_06789_af2_000000041_0001_1_20_H_._HHH_b2_02598_af2_0001_0000900017_0000001_0_af2pred_dldesign_0_af2pred (protein)
chain: SSSSSAARYMVEQALTAARNLKAAGYLEEAKKALEIARKIAEQNNDAEALKEIAEVEKELESSSS

The experiment deals with il10ra, Q13651. The experiment in a line: yeast display titration.
On to B1, for which the “apparent Kd” value is “inactive: no binding seen”.
For B2, the “apparent Kd” value is “inactive: no binding seen”.
Consider B3, for which the “apparent Kd” value was “inactive: no binding seen”.
The result for B4 reads “inactive: no binding seen”; that for B5, “inactive: no binding seen”.
The result for B6 reads “inactive: no binding seen”; that for B7, “inactive: no binding seen”; that for B8, “inactive: no binding seen”.
The result for B9 reads “inactive: no binding seen”; that for B10, “inactive: no binding seen”.
For B11, the “apparent Kd” value was “inactive: no binding seen”.
The value for B12 was “inactive: no binding seen”.
The result for B13 reads “inactive: no binding seen”; that for B14, “inactive: no binding seen”; that for B15, “inactive: no binding seen”.
The result for B16 reads “inactive: no binding seen”.
Turning to B17, the “apparent Kd” value is “inactive: no binding seen”.
The value for B18 was “inactive: no binding seen”.
